Test in all cases: cross-linking
The target of assay [1] is T1, Rieske FeS protein of CIII2 (Rhodobacter capsulatus) (UniProt D5ANZ2).
T1 sequence: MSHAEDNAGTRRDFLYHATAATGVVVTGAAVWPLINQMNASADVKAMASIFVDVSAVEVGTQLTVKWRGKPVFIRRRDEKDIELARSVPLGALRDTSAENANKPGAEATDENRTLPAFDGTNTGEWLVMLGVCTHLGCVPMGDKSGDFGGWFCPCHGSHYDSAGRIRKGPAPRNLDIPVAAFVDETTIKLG

Chains of the proteins cited; added tags and fusions are not shown. Lines headed by an entry give the natural chain unless they say otherwise; changes in a name come on top.
UniProt D5ARP5: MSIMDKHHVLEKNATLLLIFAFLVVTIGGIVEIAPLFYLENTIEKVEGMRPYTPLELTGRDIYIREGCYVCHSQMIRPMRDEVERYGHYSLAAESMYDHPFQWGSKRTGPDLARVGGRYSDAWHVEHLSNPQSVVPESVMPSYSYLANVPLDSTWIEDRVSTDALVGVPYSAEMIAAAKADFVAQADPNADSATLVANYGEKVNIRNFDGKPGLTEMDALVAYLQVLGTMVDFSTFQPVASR
UniProt Q05389: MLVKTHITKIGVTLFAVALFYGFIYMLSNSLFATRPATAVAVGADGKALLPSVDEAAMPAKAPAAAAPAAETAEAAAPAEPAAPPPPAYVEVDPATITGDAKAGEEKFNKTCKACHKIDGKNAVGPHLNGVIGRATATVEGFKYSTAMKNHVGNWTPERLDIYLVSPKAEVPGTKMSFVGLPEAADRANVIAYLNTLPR

For assay [2], the target named is T1, Rieske FeS protein of CIII2 (Rhodobacter capsulatus). The source holds these as a separate data set.
Assay [3] concerns the target T2, cytochrome c1 of CIII2 (Rhodobacter capsulatus) (UniProt D5ANZ4).
T2 sequence: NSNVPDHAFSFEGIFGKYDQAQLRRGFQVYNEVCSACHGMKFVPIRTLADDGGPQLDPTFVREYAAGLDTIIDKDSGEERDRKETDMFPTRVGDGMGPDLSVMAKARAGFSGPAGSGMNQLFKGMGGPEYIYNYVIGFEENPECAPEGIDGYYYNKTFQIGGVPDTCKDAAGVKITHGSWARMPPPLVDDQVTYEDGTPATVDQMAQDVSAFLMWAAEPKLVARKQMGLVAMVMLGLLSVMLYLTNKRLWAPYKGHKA

For assay [4], the target named is CcoO subunit of the cbb3-type CIV (Rhodobacter capsulatus) (UniProt D5ARP5).

Like-named read-outs stand apart in the source and are kept apart here. Results are given in words; binding and its absence hold for the method and conditions named. Binding seen in cells or lysates may run through a third protein. A result given as binding can be weak or reduced; the word gives no strength.

For “cyt c domain of cytochrome cy (from UniProt Q05389) (domain or fragment)”, the binding entry in assay [1], in assay [2] and in assay [3] was “binds weakly” in each case.

B1: cytochrome c2 (soluble cytochrome c) (protein, UniProt P00094 22-137)
chain: GDAAKGEKEFNKCKTCHSIIAPDGTEIVKGAKTGPNLYGVVGRTAGTYPEFKYKDSIVALGASGFAWTEEDIATYVKDPGAFLKEKLDDKKAKTGMAFKLAKGGEDVAAYLASVVK
Consider B1, for which the binding result in assay [4] is “binds”.

The values are drawn from article doi:10.1101/2020.06.27.175620 (bioRxiv, 2020).
